In article PMC10696399:
These are yes or no findings as the source states them, for the method shown. Binding seen in cells or lysates may run through a third protein. Some binding calls cover weakened binding; strength is not graded here. For part of these data: Where a sequence is shown, tags or fusion partners need not be part of it.

Protein sequences, listed by entry. Tags and fused reporters are not part of them.
UniProt P21454: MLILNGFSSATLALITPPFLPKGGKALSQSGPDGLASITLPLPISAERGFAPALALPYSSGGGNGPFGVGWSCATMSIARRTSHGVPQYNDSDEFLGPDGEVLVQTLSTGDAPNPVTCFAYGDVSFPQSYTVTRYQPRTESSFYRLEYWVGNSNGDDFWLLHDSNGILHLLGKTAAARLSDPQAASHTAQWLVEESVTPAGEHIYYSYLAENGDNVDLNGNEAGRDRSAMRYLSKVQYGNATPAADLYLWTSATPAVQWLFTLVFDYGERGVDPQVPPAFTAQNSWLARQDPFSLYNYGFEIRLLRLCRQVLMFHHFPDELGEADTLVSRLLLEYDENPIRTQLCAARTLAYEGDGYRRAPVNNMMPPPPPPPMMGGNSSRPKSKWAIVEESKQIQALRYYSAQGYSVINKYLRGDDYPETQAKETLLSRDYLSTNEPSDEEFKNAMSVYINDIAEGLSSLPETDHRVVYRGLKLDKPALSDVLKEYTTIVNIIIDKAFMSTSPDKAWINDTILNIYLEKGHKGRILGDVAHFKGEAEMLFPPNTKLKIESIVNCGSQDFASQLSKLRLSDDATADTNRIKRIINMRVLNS
UniProt Q00610: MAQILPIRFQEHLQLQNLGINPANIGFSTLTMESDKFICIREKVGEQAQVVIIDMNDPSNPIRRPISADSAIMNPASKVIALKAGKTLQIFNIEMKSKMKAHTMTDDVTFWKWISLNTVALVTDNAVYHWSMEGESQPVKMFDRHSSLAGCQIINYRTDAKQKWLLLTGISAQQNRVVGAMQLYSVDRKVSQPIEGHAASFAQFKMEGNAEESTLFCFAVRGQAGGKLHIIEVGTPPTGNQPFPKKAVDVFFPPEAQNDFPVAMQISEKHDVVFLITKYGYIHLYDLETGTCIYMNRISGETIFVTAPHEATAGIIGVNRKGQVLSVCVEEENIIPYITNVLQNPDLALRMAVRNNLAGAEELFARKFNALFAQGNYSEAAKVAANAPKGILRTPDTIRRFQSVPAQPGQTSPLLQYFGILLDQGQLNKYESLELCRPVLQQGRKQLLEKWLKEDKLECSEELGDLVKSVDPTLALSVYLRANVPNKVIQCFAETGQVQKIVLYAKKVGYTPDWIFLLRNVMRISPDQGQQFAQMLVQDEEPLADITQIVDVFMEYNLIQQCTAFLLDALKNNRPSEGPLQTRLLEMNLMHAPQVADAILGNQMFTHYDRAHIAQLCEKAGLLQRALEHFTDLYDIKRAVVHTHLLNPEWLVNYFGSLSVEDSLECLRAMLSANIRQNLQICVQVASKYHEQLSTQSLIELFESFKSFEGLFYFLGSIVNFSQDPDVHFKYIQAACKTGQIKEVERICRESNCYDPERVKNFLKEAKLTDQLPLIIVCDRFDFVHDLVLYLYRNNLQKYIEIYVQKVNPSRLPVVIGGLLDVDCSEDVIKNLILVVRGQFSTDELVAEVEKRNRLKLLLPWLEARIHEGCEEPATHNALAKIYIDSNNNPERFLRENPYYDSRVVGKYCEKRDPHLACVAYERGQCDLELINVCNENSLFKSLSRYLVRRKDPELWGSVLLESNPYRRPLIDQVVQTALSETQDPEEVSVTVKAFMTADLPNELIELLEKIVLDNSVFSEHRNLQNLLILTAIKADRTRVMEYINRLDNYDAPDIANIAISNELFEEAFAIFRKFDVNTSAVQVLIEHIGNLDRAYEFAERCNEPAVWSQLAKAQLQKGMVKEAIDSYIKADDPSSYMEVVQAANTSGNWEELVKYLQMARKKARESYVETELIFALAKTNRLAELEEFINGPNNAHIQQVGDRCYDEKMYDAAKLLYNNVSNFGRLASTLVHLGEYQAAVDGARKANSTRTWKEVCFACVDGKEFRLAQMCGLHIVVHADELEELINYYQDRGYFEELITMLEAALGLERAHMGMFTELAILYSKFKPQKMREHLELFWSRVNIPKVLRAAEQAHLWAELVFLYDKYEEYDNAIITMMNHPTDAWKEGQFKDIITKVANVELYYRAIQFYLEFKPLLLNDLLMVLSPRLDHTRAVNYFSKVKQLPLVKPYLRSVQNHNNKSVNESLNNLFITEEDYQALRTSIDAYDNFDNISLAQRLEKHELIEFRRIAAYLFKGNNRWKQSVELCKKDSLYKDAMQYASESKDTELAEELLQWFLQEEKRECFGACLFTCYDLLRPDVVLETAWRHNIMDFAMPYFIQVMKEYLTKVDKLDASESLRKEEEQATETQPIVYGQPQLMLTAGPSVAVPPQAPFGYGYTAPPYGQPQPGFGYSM

Assays:
[1] = target: HA-SpvB (S. Typhimurium strain SL1344) (UniProt P21454); assay: co-IP; FLAG-tagged AP-1 subunits or CHC cotransfected with or without HA-SpvB in 293T cells; lysates precipitated with beads coated with HA antibody; immunoblot
[2] = target: FLAG-tagged CHC (human) (UniProt Q00610); assay: co-IP; GFP-SpvB or GFP-tagged truncation mutants cotransfected with FLAG-tagged AP-1 subunits or CHC in 293T cells; lysates precipitated with beads coated with FLAG antibody; immunoblot
[3] = target: T1, FLAG-tagged SopD2 (S. Typhimurium strain SL1344) (UniProt Q8ZQC8); assay: co-IP; 293T cells transfected with FLAG-tagged SpvB, truncation mutants or SopD2; anti-FLAG immunoprecipitates probed with antibodies against endogenous CHC and AP-1γ
T1 sequence: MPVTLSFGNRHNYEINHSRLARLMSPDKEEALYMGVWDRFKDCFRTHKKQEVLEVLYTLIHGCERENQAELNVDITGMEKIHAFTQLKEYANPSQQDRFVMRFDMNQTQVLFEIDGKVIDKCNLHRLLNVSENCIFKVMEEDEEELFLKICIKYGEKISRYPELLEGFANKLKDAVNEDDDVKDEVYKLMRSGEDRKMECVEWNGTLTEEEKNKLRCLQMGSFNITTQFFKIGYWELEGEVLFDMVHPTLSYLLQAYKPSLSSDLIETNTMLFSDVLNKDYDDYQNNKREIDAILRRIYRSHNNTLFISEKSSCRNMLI

FLAG-tagged CHC (from UniProt Q00610 1-1675)
binding [1]: binds

GFP-SpvB (from UniProt P21454 1-591)
binding [2]: binds

clathrin heavy chain (endogenous) (from UniProt Q00610 1-1675)
binding [3]: no binding
